Test results as given in article PMC10507114.
Results are given in words; binding and its absence hold for the method and conditions named. Binding seen in cells or lysates may run through a third protein. Some binding calls cover weakened binding; strength is not graded here. For some of these results: Sequences can lack the tags named with a protein.

T1: FLAG-tagged VAMP8-K47A (UniProt Q9BV40)
T1 sequence: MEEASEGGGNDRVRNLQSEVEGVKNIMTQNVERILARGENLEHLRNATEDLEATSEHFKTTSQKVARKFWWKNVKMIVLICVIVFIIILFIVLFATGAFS

T2: FLAG-tagged vesicle-associated membrane protein 8 (VAMP8), wild type, Q9BV40
T2 chain: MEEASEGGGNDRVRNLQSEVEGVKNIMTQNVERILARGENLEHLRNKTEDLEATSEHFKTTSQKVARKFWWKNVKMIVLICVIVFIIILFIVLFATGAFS

T3: VAMP8, endogenous in H9c2 cells (rat (endogenous in H9c2)) (UniProt Q9WUF4)
T3 sequence: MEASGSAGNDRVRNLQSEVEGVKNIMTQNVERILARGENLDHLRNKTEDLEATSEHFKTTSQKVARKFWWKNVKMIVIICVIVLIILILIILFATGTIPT


Assays:
Experiment in all cases: co-IP
FLAG-tagged VAMP8-K47A = target: T1, FLAG-tagged VAMP8-K47A
[1] = target: T2, FLAG-tagged vesicle-associated membrane …; settings: remark: other sources report otherwise
[2] = target: T3, VAMP8, endogenous in H9c2 cells (rat (endogenous in H9c2))

| Molecule | binding [2] | also measured |
| --- | --- | --- |
| syntaxin 17 (STX17), in HEK293 cells (from UniProt P56962 1-302) | – | binding (FLAG-tagged VAMP8-K47A): binds |
| syntaxin 17 (STX17), in HEK293 cells, P56962 1-302 (protein) MSEDEEKVKLRRLEPAIQKFIKIVIPTDLERLRKHQINIEKYQRCRIWDKLHEEHINAGRTVQQLRSNIREIEKLCLKVRKDDLVLLKRMIDPVKEEASAATAEFLQLHLESVEELKKQFNDEETLLQPPLTRSMTVGGAFHTTEAEASSQSLTQIYALPEIPQDQNAAESWETLEADLIELSQLVTDFSLLVNSQQEKIDSIADHVNSAAVNVEEGTKNLGKAAKYKLAALPVAGALIGGMVGGPIGLLAGFKVAGIAAALGGGVLGFTGGKLIQRKKQKMMEKLTSSCPDLPSQTDKKCS | – | binding [1]: binds |
| SNAP29, endogenous in H9c2 cells (protein, UniProt Q9Z2P6 1-257) MSGYPKSYNPFDDDVEDEDTRPAPWKDARDLPDGPDPPIDRQQYLRQEVLRGPSATAASTSRSLFLMYESEKIGVASSEELVRQRGVLEHTEKMVDKMDQDLKMSQKHINSIKSVFGGFINYFKSKPVEPPPEQNGSIVPQPSSRLKEAINTSKDQESKYQASHPNLRRLHDAELDSVPASTVNTEVYPKNSSLRAYHQKIDSNLDELSVGLGRLKDIALGMQTEIEEQDDILDRLTTKVDKLDVNIKSTEKKVRQL | binds | – |
| STX17, endogenous in H9c2 cells (protein, UniProt Q9Z158 1-301) MSEDEEKVKLRRLEPAIQKFTKIVIPTDLERLKKHQINIEKYQRCRIWDKLHEEHINAGRTVQQLRSNIREMEKLCLKVHKDDLILLKRMIDPMKEAAAAATAEFLQLHLESVEELKKQVKNEEALLQPSLTRSTTIDGVHTGEAEAASQSLTQIYALPEIPRDQNAAESWETLEADLIELSHLVTDMSLLVNSQQEKIDSIADHVNSAAVNVEEGTKNLQKAAKYKLAALPVAGAVIGGVVGGPIGLLAGFKVAGIAAALGGGVLGFTGGKLIQRRKQKMMEKLTSSCPDLPSQSDKKCS | binds | – |
